# Experimental data published in PMC3731272.
# Sequences of proteins named here, by UniProt entry; tags and fusion partners are left off. A change or cut given only in a name is not applied to a line headed by its entry.
# UniProt P60953: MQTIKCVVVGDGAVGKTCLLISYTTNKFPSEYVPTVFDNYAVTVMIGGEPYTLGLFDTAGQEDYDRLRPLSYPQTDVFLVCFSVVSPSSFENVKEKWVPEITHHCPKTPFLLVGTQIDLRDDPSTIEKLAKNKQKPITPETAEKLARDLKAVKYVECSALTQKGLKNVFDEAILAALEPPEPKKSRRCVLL
# UniProt Q13153: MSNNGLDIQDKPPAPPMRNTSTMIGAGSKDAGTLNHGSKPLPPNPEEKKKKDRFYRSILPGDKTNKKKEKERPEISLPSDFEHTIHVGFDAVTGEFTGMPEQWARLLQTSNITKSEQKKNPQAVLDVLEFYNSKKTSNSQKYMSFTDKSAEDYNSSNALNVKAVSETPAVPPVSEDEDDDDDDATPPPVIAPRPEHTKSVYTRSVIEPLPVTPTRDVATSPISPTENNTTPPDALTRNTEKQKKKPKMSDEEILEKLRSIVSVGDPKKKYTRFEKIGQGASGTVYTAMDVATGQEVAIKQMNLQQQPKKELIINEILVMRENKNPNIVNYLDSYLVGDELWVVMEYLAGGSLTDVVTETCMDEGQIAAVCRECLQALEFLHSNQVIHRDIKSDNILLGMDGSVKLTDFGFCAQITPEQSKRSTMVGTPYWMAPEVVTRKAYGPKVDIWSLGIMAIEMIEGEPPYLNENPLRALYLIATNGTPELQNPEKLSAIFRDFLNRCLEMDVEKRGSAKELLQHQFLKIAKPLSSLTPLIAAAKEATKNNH
# No constants are given. Whether binding was seen depends on the method and setting. In cells and extracts the contact can be indirect. Some results given as binding are weak or reduced against the parent protein; the word gives no strength.
# Assays:
# [1] = biological target: GST-Cdc42 (UniProt P60953); assay: pull-down; lysates of 293T cells expressing GFP-PAK1 WT or S79A incubated with GST-Cdc42 or GST-Rac1 bound to GST-beads; eluates blotted with anti-GFP; only the target purified
# [2] = biological target: GFP-PAK1 (WT) (UniProt Q13153); assay: co-IP; GFP-PAK1 (WT or S79A) coexpressed with Myc-Cdc42 in 293T cells; extracts immunoprecipitated with anti-GFP, blotted with anti-Myc; lysis buffer 50 mM HEPES pH 7.4, 150 mM NaCl, 1 mM EDTA, 10% glycerol, 1% Triton X100 with phosphatase inhibitors; antibodies overnight at 4°C
binding [1],binding [2],Substance
binds,–,GFP-PAK1 (WT) (from UniProt Q13153 1-545) (enzyme)
–,binds,Myc-Cdc42 (from UniProt P60953 1-191)
binds,–,GFP-PAK1^S79A (from UniProt Q13153 1-545) (enzyme)
